# Tested on: PC3 PD-L1 and PC3 mock cells
# Assay: In vitro cell uptake in PC3 PD-L1 and PC3 mock cells
# Format: cell-based, human
# Conditions: for plastic retention of [64Cu]Cu-16 relative to [64Cu]Cu-14: cell uptake assay
# Procedure: Both the target-positive (PC3 PD-L1) and negative cells (PC3 mock) were seeded at ~60,000 cells per well two days prior to the experiment. At the time of experiment, cells were then incubated with the respective radioligand at or close to the KD (determined by saturation binding) in binding buffer. For each timepoint and radiotracer (30, 60, 120 and 240 min), a single plate was used (with triplicate measurements). Additional controls per plate included plastic retention, nonspecific binding [excess of unlabeled BMS-1166 (in DMSO, resulting in 0.03% v/v) for both PC3 PD-L1 and PC3 mock] and cells incubated with PBS only (protein control). Following incubation, cells were washed twice in ice-cold binding buffer, lysed in 500 μL of 0.1 M NaOH + 1% SDS and radioactivity was measured in a gamma counter (Perkin Elmer Wizard 1480) and decay corrected to a reference time (end of radiolabeling).
# Protein content was determined for each timepoint and cell type by BCA assay.
# Figure S27: Cell uptake (fmol/mg protein) of [64Cu]Cu-14&16 into either PC3 PD-L1 or PC3 mock cells. Uptake of both […]
# effects model. Binding to PC3 mock cells is similar to that of PC3 PD-L1 and PC3 mock cells blocked with an excess of […]
Structure (SMILES),plastic retention of [64Cu]Cu-16 relative to [64Cu]Cu-14,plastic retention (cell uptake assay control wells)
Cc1c(COc2cc(OCc3cncc(S(C)(=O)=O)c3)c(CN[C@@H](CS(=O)(=O)O)C(=O)NCCS(=O)(=O)O)cc2Br)cccc1-c1cccc(OCc2cn(CCCN3CCN(C(=O)[C@H](CS(=O)(=O)O)NC(=O)CC[C@H](C(=O)[O-])N4CCN(CC(=O)[O-])CCN(CC(=O)[O-])CC4)CC3)nn2)c1C.[64Cu+2] [[^64Cu]Cu-14],10 times,0.03 % of tracer stock activity
Cc1c(COc2cc(OCc3cncc(S(C)(=O)=O)c3)c(CN[C@@H](CS(=O)(=O)O)C(=O)NCCS(=O)(=O)O)cc2Br)cccc1-c1cccc(OCc2cn(CCCN3CCN(C(=O)[C@H](CS(=O)(=O)O)NC(=O)CCCC(=O)NC45CNCCNCC(N)(CNCCNC4)CNCCNC5)CC3)nn2)c1C.[64Cu+2] [[^64Cu]Cu-16],~ 10 times,–
